Laboratory results from the supplement of paper PMC11732987, “Enantioselective OTUD7B fragment discovery through chemoproteomics screening and high-throughput optimisation” (Communications Chemistry, 2025).
The other results are listed elsewhere or left out. The data scatter; read single values as rough.

Amino acid sequences for entries named in this document (tags omitted). A change or cut given only in a name is not applied to a line headed by its entry.
UniProt Q9NWH9: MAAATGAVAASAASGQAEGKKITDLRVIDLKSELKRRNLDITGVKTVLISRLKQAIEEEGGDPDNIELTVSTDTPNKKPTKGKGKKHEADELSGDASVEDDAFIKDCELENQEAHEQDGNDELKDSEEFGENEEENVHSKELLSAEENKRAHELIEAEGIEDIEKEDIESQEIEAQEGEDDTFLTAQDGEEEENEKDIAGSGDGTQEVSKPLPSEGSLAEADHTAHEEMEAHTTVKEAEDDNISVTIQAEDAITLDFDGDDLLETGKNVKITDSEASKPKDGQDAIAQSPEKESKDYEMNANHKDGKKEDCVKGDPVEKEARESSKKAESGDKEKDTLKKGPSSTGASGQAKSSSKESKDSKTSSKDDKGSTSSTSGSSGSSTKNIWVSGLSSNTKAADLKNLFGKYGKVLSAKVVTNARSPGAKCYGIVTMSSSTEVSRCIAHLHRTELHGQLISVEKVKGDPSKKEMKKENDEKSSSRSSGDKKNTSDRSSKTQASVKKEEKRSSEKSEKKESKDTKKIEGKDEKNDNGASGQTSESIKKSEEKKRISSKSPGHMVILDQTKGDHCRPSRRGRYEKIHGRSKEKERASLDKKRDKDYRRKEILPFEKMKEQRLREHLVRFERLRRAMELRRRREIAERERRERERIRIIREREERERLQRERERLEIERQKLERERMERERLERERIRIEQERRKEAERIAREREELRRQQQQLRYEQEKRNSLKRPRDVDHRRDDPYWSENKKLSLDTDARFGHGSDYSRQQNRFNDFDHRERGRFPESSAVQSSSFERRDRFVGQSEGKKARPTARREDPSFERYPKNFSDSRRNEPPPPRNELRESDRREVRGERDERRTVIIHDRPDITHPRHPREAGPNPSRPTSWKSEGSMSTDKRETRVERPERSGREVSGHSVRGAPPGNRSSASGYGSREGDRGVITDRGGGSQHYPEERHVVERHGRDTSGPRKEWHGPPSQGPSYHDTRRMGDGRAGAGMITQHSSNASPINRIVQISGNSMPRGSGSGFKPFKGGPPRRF

These molecules were tested against SLTM C311 (UniProt Q9NWH9) (assay: log2 mean competition ratio of IA-DTB cysteine labelling (DMSO/compound) (log2 ratio); higher = stronger cysteine engagement by compound). Details: 50 µM; treatment time: 4 h; cell line lysate: HEK293T.
Protocol: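 IA-DTB competitive cysteine chemoproteomics in HEK293T RIPA lysate. Lysates were treated with compound 29 or 30 at 50 or 200 µM for 4 h, then IA-DTB (500 µM, 1 h), trypsin-digested, NeutrAvidin-enriched and analysed by diaPASEF. Competition ratio = intensity DMSO / intensity compound (n=4 treated, n=64 DMSO); binding: mean log2 CR ≥ 1 and p ≤ 0.05 plus QC filters. Target is the cysteine site.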

Row | Structure (SMILES) | log2 mean competition ratio
1 | O=C(CCl)N[C@H]1CCCc2ccccc21 | -0.124
2 | O=C(CCl)N[C@@H]1CCCc2ccccc21 | -0.141

Same assay, conditions: 200 µM; treatment time: 4 h; cell line lysate: HEK293T

Row | Structure (SMILES) | log2 mean competition ratio
3 | O=C(CCl)N[C@H]1CCCc2ccccc21 | -0.0871
4 | O=C(CCl)N[C@@H]1CCCc2ccccc21 | 0.29
